Assay results: PMC7661038

Sequences of proteins named here, by UniProt entry; tags and fusion partners are left off.
UniProt Q6XZL8: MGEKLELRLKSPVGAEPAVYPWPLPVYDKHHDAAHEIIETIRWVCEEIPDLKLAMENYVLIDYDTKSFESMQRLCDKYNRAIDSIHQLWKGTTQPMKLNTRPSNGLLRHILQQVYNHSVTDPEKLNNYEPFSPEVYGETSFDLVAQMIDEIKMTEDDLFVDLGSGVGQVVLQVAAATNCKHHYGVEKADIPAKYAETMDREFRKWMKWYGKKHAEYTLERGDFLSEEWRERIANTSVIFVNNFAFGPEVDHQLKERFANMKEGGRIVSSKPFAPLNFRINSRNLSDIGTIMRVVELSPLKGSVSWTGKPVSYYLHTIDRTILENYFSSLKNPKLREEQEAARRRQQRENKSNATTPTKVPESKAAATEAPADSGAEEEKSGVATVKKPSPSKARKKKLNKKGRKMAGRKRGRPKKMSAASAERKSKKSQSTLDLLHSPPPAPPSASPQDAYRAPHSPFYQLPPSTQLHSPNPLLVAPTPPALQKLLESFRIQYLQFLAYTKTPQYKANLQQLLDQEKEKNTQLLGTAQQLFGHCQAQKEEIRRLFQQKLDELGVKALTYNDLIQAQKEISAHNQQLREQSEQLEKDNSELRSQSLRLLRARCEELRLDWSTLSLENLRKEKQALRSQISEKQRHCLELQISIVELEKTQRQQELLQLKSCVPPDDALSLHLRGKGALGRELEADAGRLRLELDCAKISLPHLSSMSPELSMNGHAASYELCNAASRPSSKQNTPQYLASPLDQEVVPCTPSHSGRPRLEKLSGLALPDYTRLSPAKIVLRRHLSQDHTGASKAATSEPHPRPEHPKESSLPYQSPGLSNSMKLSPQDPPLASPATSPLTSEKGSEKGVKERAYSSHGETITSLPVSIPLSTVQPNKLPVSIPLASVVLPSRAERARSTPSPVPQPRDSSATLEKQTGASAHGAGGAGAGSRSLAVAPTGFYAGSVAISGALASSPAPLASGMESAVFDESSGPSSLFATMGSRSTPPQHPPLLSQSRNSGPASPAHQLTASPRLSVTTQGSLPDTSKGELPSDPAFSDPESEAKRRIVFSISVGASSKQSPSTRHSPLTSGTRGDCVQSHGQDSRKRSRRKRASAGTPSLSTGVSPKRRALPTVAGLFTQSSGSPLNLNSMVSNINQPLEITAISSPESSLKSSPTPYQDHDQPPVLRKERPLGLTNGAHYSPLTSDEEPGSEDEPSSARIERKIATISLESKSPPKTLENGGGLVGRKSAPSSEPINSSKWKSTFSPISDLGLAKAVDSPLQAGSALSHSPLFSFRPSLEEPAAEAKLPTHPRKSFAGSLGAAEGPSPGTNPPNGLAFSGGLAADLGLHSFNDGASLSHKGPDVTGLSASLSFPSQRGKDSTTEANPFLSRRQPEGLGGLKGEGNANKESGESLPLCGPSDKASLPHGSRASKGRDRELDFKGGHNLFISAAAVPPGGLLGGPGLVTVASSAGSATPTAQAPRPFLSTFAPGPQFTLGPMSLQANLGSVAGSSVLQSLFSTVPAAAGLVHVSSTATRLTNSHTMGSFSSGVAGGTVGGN

Target: T1, Zc3h10-TAP (mouse) (UniProt Q8R205)
T1 sequence: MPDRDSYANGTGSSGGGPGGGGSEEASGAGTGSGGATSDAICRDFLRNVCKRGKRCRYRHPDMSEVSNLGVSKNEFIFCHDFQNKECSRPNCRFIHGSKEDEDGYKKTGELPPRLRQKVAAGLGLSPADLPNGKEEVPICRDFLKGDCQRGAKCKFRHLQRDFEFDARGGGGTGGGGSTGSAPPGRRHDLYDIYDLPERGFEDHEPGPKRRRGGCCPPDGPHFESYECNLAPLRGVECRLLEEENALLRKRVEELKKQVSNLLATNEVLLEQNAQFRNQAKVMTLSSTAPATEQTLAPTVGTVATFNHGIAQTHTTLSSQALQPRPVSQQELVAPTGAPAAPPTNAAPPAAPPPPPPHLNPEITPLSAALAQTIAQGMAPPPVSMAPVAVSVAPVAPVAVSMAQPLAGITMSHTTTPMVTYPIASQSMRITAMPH
Test: affinity purification with mass spectrometry; Zc3h10-TAP from transfected HEK293 lysate bound to Streptavidin resin, resin re-incubated overnight with 200 µg of BAT nuclear extracts in SBB; sequential (tandem) purification, SDS-PAGE, bands specific to the Zc3h10-TAP lane excised and identified by mass spectrometry

For “endogenous Dot1l (from UniProt Q6XZL8 1-1540) (enzyme)”, the binding was “binds”.

Results are given in words; binding and its absence hold for the method and conditions named. Binding seen in cells or lysates may run through a third protein. Here binding means that the protein was enriched with, or labelled near, the bait; the list need not be complete.
